# Experimental data taken from US20240358735A1, “THERAPEUTIC COMPOSITIONS AND RELATED METHODS” (BOYCE THOMPSON INSTITUTE FOR PLANT RESEARCH, INC., priority 2021, published 2024).
# System: Cbr-cest-2 mutants
# Test: Comparative metabolomics (HPLC-HRMS) of Cbr-cest-2 mutants versus wildtype C. briggsae (AF16)
# Details: abundance of the metabolite in Cbr-cest-2 mutants compared to C. briggsae wildtype (AF16)
row,SMILES,"Cbr-cest-2 fold over WT (AF16), average of 4 repeats"
1,C/C=C(\C)C(=O)OCC1OC(OC(=O)c2cccnc2)C(OC(=O)c2ccccc2)C(OP(=O)(O)O)C1O (centres unmarked) [nglu#3],0.0005537
2,Nc1ccccc1C(=O)O[C@@H]1O[C@H](COC(=O)c2cccnc2)[C@@H](O)[C@H](OP(=O)(O)O)[C@H]1O [angl#10],0.0001569
3,O=C(Cc1ccccc1)O[C@@H]1[C@@H](OP(=O)(O)O)[C@H](O)[C@@H](CO)O[C@H]1n1ccc2ccccc21 [iglu#16],0.001912
4,O=C(C[C@@H]1O[C@H](COC(=O)c2ccc[nH]2)[C@@H](O)[C@H](OP(=O)(O)O)[C@H]1OC(=O)c1ccc[nH]1)c1ccccc1 [bzglu#9],0.00368
5,C/C=C(\C)C(=O)OC[C@H]1O[C@@H](Cc2ccc(C(O)CN)cc2)[C@H](OC(=O)c2ccccc2N)[C@@H](OP(=O)(O)O)[C@@H]1O (some centres unmarked) [oglu#10],0.00416
6,C/C=C(\C)C(=O)OC[C@H]1O[C@@H](OC(=O)c2ccc[nH]2)[C@H](OC(=O)c2ccccc2)[C@@H](OP(=O)(O)O)[C@@H]1O [pyglu#4],0.003757
7,O=C(O[C@@H]1[C@@H](OP(=O)(O)O)[C@H](O)[C@@H](CO)O[C@H]1n1ccc2ccccc21)c1ccccn1 [iglu#601],0.00961
8,CC(O)CC(=O)OC[C@H]1O[C@@H](CC(=O)c2ccccc2N)[C@H](OC(=O)c2ccccc2N)[C@@H](OP(=O)(O)O)[C@@H]1O (some centres unmarked) [angl#44],0.0006083
9,CCC(C)C(=O)O[C@H]1[C@H](Oc2ccc(CCN)cc2)O[C@H](CO)[C@@H](O)[C@@H]1OP(=O)(O)O (some centres unmarked) [tyglu#131],0.001614
10,C/C=C(\C)C(=O)O[C@H]1[C@H](Oc2ccc(CCN)cc2)O[C@H](COC(=O)c2ccccc2N)[C@@H](O)[C@@H]1OP(=O)(O)O [tyglu#8],0.0001841
11,O=C(/C=C/c1cnc[nH]1)OC[C@H]1O[C@@H](n2ccc3ccccc32)[C@H](OC(=O)c2ccccc2)[C@@H](OP(=O)(O)O)[C@@H]1O [iglu#69],0.0008321
12,C/C=C(\C)C(=O)OC1C(OP(=O)(O)O)C(O)C(COC(=O)c2ccccc2)OC1n1ccc2ccccc21 (centres unmarked) [iglu#28],0.01957
13,C/C=C(\C)C(=O)OC[C@H]1O[C@@H](OC(=O)c2ccccc2N)[C@H](OC(=O)c2ccccc2N)[C@@H](OP(=O)(O)O)[C@@H]1O [iglu#88],8.01E−05
14,Nc1ccccc1C(=O)OCC1OC(n2ccc3ccccc32)C(OC(=O)c2ccccc2)C(OP(=O)(O)O)C1O (centres unmarked) [iglu#65],5.36E−05
15,O=C(OCC1OC(OC(=O)c2ccccc2)C(OC(=O)c2ccc[nH]2)C(OP(=O)(O)O)C1O)c1cccnc1 (centres unmarked) [bzglu#12],0.00312
16,CC(C)CC(=O)OC1C(OC(=O)c2ccccc2N)OC(CO)C(O)C1OP(=O)(O)O (centres unmarked) [angl#46],0.0002486
17,Nc1ccccc1C(=O)O[C@@H]1O[C@H](COC(=O)c2ccc[nH]2)[C@@H](O)[C@H](OP(=O)(O)O)[C@H]1OC(=O)c1cccnc1 [angl#23],0.00139
18,CCC(=O)OC[C@H]1O[C@@H](n2ccc3ccccc32)[C@H](OC(=O)c2ccccc2N)[C@@H](OP(=O)(O)O)[C@@H]1O [iglu#24],0.008043
19,O=C(OC[C@H]1O[C@@H](n2ccc3ccccc32)[C@H](OC(=O)c2ccccc2)[C@@H](OP(=O)(O)O)[C@@H]1O)c1ccccc1 [iglu#50],9.54E−05
20,C/C=C(\C)C(=O)O[C@@H]1[C@@H](OP(=O)(O)O)[C@H](O)[C@@H](COC(=O)c2cccnc2)O[C@H]1n1ccc2ccccc21 [iglu#31],0.0001071
21,NCCc1ccc(O[C@@H]2O[C@H](COC(=O)c3ccc(O)cc3)[C@@H](O)[C@H](OP(=O)(O)O)[C@H]2OC(=O)c2ccccc2N)cc1 [tyglu#35],0.002264
22,C/C=C(\C)C(=O)O[C@@H]1[C@@H](OP(=O)(O)O)[C@H](O)[C@@H](COC(=O)c2ccccc2N)O[C@H]1n1ccc2ccccc21 [iglu#42],0.008524
23,CCC/C=C/C=C\C=C\C(=O)OC[C@H]1O[C@@H](Oc2ccc(CCN)cc2)[C@H](OC(=O)c2ccccc2N)[C@@H](OP(=O)(O)O)[C@@H]1O [tyglu#50],0.002938
24,Nc1ccccc1C(=O)OC[C@H]1O[C@@H](OC(=O)c2ccccc2N)[C@H](OC(=O)c2ccccc2N)[C@@H](OP(=O)(O)O)[C@@H]1O [angl#36],1.99E−05
25,CCCC(O)CC(=O)CC(=O)OC[C@H]1O[C@@H](Oc2ccc(CCN)cc2)[C@H](OC(=O)c2ccccc2N)[C@@H](OP(=O)(O)O)[C@@H]1O (some centres unmarked) [tyglu#45],0.0006813

row,SMILES,"Cbr-cest-2 fold over WT (AF16), average of 4 repeats"
1,Nc1ccccc1C(=O)O[C@@H]1O[C@H](CO)[C@@H](O)[C@H](OP(=O)(O)O)[C@H]1OC(=O)c1ccccc1 [angl#161],0.004934
2,CC(C)CC(=O)O[C@@H]1[C@@H](OP(=O)(O)O)[C@H](O)[C@@H](CO)O[C@H]1n1ccc2ccccc21 [iglu#141],0.0001793
3,CCC/C=C/C(=O)OCC1OC(OC(=O)c2cccnc2)C(OC(=O)c2cccnc2)C(OP(=O)(O)O)C1O (centres unmarked) [nglu#9],0.001272
4,Nc1ccccc1C(=O)O[C@@H]1O[C@H](COC(=O)c2cccnc2)[C@@H](O)[C@H](OP(=O)(O)O)[C@H]1OC(=O)c1cccnc1 [angl#30],0.002059
5,CC(C)CC(=O)O[C@H]1[C@H](Oc2ccc(CCN)cc2)O[C@H](COC(=O)c2ccccc2N)[C@@H](O)[C@@H]1OP(=O)(O)O [tyglu#14],0.005027
6,Nc1ccccc1C(=O)C[C@@H]1O[C@H](COC(=O)c2ccc[nH]2)[C@@H](O)[C@H](OP(=O)(O)O)[C@H]1OC(=O)c1ccccc1N [angl#52],0.000376
7,NCCc1ccc(O[C@@H]2O[C@H](COC(=O)c3ccccc3N)[C@@H](O)[C@H](OP(=O)(O)O)[C@H]2OC(=O)c2ccccc2)cc1 [tyglu#16],0.00004669
8,Nc1ccccc1C(=O)OC[C@H]1O[C@@H](CC(=O)c2ccc(O)cc2)[C@H](OC(=O)c2ccc(O)cc2)[C@@H](OP(=O)(O)O)[C@@H]1O [angl#48],0.0004702
9,C/C=C(\C)C(=O)O[C@H]1[C@H](OC(=O)c2ccccc2N)O[C@H](CO)[C@@H](O)[C@@H]1OP(=O)(O)O [angl#601],0.005194
10,CCCCCCCCC(=O)CC(=O)O[C@H]1[C@H](Oc2ccc(CCN)cc2)O[C@H](CO)[C@@H](O)[C@@H]1OP(=O)(O)O [tyglu#53],0.002604
11,C[C@H](CCC(=O)O[C@H]1[C@H](Oc2ccc(CCN)cc2)O[C@H](CO)[C@@H](O)[C@@H]1OP(=O)(O)O)O[C@@H]1O[C@@H](C)[C@H](O)C[C@H]1O [tyglas#9],0.01907
12,Cn1c(N)nc2c(ncn2C2OC(COC(=O)c3ccccc3)C(O)C(OP(=O)(O)O)C2OC(=O)c2ccccc2)c1=O (centres unmarked) [mgglu#6],0.0002185
13,C/C=C(\C)C(=O)O[C@H]1[C@H](Oc2ccc(CCN)cc2)O[C@H](CO)[C@@H](O)[C@@H]1OP(=O)(O)O [tyglu#701],0.00121
14,C/C=C(\C)C(=O)O[C@@H]1[C@@H](CP(=O)(O)O)[C@H](O)[C@@H](CO)O[C@H]1n1ccc2ccccc21 [iglu#801],8.69E−05
15,Nc1ccccc1C(=O)OC[C@H]1O[C@@H](n2ccc3ccccc32)[C@H](OC(=O)c2ccc[nH]2)[C@@H](OP(=O)(O)O)[C@@H]1O [iglu#57],0.006393
16,"O=C(O[C@@H]1[C@@H](OP(=O)(O)O)[C@H](O)[C@@H](CO)O[C@H]1n1ccc2ccccc21)c1ccccc1 [iglu#121, (2R,3R,4S,5R,6R)-5-hydroxy-6-(hydroxymethyl)-2-(1H-indol-1-yl)-4-(phosphonooxy)tetrahydro-2H-pyran-3-yl benzoate]",5.40E−05
17,CC(C)CC(=O)OC[C@H]1O[C@@H](Oc2ccc(CCN)cc2)[C@H](OC(=O)c2ccccc2N)[C@@H](OP(=O)(O)O)[C@@H]1O [tyglu#52],0.0001584
18,NCCc1ccc(O[C@@H]2O[C@H](CO)[C@@H](O)[C@H](OP(=O)(O)O)[C@H]2OC(=O)c2cccnc2)cc1 [tyglu#501],0.00188
19,CCC(=O)O[C@H]1[C@H](OC(=O)c2ccccc2N)O[C@H](CO)[C@@H](O)[C@@H]1OP(=O)(O)O [angl#12],0.001398
20,NCCc1ccc(O[C@@H]2O[C@H](COC(=O)c3ccc[nH]3)[C@@H](O)[C@H](OP(=O)(O)O)[C@H]2OC(=O)c2ccccc2N)cc1 [tyglu#34],0.005294
21,"O=C(O[C@@H]1[C@@H](OP(=O)(O)O)[C@H](O)[C@@H](CO)O[C@H]1n1ccc2ccccc21)c1ccc[nH]1 [iglu#101, (2R,3R,4S,5R,6R)-5-hydroxy-6-(hydroxymethyl)-2-(1H-indol-1-yl)-4-(phosphonooxy)tetrahydro-2H-pyran-3-yl 1H-pyrrole-2-carboxylate]",0.0153
22,CCC(O)C(=O)OC[C@H]1O[C@@H](n2ccc3ccccc32)[C@H](OC(=O)c2ccccc2N)[C@@H](OP(=O)(O)O)[C@@H]1O (some centres unmarked) [iglu#49],0.006783
23,CCCC(=O)OC[C@H]1O[C@@H](n2ccc3ccccc32)[C@H](OC(=O)c2cccnc2)[C@@H](OP(=O)(O)O)[C@@H]1O [iglu#92],0.001118
24,CCCCCCCCCCCC(=O)O[C@H]1[C@H](OC(=O)c2ccccc2N)O[C@H](COC(=O)c2ccccc2N)[C@@H](O)[C@@H]1OP(=O)(O)O [angl#41],0.0004091
25,O=C(/C=C/c1c[nH]cn1)OC[C@H]1O[C@@H](n2ccc3ccccc32)[C@H](OC(=O)c2ccccc2)[C@@H](OP(=O)(O)O)[C@@H]1O [iglu#70],0.01157
